For at least one entry, the source does not settle the construct or the ends of the probe.

The values that follow come from PMC7775441.

The series deals with OpWRKY2 (Ophiorrhiza pumila). Put plainly: EMSA. As to conditions: not given (EMSA performed as previously described, ref 16); recombinant protein; protein details: His-TF fusion (pCold-TF); label: 5' biotin on each strand. Background: A gel shift assay detects complexes by their altered migration in electrophoresis.

As for “CTTCAGTCAAGGCC (double strand) [OpTDC promoter W-box probe (-2565 to -2552)]”, the binding result is given as “binds”.
